Here are results for 38 targets from the supplement of paper PMC10849652.

Protein sequences, listed by entry. Tags and fused reporters are not part of them. Lines headed by an entry give the natural chain unless they say otherwise; changes in a name come on top.
UniProt Q9BUB5: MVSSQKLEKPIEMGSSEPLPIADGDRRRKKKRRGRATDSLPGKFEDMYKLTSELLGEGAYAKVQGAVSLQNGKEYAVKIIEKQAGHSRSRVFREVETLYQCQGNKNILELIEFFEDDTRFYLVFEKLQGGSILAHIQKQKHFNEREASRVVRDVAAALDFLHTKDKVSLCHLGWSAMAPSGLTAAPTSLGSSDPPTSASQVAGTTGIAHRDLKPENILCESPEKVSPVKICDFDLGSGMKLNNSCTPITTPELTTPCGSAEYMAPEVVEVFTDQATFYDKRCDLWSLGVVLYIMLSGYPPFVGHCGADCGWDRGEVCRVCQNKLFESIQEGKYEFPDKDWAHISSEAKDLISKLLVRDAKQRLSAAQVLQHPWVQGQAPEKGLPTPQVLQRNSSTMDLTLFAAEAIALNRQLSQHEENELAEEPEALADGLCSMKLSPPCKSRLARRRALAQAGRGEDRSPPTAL
UniProt Q9NV56, whole entry, looked up: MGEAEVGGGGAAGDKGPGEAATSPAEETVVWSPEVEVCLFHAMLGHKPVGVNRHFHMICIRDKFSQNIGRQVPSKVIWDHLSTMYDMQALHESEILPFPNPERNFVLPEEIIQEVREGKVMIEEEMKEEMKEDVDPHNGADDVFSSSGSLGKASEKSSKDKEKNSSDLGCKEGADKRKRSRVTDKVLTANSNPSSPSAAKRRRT
UniProt Q9BU76: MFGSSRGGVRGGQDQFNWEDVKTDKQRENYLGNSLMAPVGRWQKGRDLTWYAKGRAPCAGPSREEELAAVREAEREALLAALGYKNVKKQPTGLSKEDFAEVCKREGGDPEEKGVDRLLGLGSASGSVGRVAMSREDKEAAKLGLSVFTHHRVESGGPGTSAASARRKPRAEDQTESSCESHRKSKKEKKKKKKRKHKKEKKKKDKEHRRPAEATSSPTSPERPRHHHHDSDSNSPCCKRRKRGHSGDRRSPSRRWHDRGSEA
UniProt P25325: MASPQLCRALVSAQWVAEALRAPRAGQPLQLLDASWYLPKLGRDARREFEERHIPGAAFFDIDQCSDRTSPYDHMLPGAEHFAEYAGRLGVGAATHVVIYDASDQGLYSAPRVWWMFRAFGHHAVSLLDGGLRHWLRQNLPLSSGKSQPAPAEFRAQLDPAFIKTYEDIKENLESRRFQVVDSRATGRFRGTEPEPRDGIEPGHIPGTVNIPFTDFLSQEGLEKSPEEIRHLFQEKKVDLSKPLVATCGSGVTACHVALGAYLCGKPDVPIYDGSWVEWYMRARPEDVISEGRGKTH
UniProt Q5TGZ0: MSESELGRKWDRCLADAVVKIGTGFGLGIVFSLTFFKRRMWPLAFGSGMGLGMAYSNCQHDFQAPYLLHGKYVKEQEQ
UniProt Q8IY33: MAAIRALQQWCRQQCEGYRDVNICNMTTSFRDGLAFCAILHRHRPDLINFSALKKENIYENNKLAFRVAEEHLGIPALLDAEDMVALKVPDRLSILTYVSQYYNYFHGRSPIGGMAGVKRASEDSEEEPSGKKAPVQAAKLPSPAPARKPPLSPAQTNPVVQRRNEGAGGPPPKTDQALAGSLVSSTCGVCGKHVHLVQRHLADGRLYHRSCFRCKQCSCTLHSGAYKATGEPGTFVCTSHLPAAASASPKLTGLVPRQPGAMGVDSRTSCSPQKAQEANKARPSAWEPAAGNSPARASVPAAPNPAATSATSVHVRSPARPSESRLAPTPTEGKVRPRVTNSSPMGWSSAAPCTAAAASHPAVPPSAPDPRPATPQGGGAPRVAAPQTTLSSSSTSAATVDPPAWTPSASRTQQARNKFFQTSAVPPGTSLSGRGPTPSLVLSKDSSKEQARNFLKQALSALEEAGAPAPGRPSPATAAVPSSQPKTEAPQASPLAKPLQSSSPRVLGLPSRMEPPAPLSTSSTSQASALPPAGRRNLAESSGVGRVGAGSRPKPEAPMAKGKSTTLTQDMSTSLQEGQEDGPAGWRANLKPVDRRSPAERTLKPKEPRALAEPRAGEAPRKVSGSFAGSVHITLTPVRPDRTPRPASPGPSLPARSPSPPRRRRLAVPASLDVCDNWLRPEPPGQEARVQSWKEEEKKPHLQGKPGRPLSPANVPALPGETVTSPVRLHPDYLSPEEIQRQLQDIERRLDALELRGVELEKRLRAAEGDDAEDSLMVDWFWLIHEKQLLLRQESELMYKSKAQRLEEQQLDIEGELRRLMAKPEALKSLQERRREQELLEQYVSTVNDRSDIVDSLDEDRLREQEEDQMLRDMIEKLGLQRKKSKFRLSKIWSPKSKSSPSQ
UniProt Q7Z3U7: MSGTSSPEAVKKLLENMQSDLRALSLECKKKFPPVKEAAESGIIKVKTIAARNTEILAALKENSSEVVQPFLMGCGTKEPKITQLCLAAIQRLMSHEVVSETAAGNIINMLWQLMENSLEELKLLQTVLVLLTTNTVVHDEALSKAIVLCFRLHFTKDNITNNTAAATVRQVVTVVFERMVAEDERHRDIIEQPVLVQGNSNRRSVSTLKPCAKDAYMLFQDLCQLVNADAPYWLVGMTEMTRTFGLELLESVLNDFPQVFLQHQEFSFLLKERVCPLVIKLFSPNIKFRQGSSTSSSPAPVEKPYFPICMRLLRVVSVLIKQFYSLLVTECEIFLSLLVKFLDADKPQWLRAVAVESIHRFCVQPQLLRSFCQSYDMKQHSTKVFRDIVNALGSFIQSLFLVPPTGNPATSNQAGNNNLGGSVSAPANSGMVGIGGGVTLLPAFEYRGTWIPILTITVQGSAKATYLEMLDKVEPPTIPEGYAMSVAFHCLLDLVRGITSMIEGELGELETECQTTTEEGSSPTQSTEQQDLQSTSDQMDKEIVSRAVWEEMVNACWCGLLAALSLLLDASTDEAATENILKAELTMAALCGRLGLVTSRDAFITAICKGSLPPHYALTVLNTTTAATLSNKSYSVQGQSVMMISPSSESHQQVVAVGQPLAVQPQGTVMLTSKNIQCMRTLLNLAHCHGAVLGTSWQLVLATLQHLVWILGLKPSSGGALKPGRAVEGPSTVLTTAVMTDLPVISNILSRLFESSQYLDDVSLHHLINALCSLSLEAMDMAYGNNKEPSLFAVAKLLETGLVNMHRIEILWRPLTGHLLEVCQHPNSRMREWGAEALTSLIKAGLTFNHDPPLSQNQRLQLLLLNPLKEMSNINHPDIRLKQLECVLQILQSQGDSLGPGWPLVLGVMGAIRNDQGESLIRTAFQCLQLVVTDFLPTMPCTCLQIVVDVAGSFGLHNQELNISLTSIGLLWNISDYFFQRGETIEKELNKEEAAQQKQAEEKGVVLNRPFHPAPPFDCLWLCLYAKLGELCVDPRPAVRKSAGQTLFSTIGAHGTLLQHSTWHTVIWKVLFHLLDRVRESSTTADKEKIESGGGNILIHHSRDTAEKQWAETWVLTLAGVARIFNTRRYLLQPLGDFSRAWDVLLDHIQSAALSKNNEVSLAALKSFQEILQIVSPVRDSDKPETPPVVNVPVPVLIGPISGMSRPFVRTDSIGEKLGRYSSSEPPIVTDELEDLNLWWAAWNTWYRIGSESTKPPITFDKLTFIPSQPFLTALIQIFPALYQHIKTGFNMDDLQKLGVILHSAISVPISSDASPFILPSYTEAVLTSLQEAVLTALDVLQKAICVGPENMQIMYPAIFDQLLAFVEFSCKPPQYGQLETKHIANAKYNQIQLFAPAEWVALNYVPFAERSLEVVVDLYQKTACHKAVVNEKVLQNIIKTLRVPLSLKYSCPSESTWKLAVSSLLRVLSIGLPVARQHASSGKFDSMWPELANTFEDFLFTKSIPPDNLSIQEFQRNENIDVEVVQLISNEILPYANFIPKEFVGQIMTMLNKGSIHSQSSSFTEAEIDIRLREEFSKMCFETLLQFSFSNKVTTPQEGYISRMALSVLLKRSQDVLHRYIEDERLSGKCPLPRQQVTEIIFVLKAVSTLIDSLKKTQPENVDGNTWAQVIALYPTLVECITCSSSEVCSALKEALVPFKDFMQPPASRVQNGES
UniProt Q9H000: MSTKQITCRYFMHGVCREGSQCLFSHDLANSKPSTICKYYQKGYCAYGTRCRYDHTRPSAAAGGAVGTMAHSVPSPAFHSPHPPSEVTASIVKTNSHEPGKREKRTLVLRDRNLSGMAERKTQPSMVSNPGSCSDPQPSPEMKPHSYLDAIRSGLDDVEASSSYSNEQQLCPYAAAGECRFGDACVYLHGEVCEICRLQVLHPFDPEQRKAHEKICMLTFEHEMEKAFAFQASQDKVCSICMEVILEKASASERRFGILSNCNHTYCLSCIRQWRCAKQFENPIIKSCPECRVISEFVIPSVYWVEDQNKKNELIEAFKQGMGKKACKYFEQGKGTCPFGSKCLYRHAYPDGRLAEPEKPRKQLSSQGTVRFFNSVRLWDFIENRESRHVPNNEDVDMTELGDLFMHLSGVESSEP
UniProt Q9Y6X9: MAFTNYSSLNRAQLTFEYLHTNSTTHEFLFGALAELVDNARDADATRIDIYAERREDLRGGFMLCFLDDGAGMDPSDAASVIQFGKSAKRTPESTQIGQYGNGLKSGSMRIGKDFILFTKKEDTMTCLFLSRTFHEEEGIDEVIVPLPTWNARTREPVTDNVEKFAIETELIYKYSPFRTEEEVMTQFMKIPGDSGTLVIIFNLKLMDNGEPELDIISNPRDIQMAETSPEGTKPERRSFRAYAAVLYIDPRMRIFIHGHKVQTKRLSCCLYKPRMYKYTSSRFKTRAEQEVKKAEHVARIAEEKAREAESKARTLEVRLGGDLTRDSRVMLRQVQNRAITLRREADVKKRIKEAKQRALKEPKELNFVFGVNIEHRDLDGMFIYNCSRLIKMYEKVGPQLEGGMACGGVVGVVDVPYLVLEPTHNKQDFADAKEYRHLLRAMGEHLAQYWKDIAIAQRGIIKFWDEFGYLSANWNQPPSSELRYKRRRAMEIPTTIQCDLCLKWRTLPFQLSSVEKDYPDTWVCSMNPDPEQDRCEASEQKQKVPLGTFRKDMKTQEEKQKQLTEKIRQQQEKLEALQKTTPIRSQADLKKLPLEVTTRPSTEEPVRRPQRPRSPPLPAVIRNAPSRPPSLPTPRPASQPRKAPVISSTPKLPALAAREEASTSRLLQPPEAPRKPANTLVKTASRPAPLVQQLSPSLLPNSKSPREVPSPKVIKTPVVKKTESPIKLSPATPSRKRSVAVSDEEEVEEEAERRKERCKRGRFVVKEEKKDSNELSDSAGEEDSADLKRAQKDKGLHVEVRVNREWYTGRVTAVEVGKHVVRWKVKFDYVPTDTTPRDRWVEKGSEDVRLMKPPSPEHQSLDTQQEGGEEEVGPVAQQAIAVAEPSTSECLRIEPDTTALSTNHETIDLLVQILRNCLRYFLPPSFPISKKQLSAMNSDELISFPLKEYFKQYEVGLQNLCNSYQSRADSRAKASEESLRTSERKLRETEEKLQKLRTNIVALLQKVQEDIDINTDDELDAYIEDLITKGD
UniProt O14880: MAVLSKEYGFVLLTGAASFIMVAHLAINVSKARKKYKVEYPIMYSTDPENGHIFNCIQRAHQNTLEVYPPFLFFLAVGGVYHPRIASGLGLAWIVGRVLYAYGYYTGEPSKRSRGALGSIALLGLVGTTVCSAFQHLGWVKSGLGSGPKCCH
UniProt Q9HCE1: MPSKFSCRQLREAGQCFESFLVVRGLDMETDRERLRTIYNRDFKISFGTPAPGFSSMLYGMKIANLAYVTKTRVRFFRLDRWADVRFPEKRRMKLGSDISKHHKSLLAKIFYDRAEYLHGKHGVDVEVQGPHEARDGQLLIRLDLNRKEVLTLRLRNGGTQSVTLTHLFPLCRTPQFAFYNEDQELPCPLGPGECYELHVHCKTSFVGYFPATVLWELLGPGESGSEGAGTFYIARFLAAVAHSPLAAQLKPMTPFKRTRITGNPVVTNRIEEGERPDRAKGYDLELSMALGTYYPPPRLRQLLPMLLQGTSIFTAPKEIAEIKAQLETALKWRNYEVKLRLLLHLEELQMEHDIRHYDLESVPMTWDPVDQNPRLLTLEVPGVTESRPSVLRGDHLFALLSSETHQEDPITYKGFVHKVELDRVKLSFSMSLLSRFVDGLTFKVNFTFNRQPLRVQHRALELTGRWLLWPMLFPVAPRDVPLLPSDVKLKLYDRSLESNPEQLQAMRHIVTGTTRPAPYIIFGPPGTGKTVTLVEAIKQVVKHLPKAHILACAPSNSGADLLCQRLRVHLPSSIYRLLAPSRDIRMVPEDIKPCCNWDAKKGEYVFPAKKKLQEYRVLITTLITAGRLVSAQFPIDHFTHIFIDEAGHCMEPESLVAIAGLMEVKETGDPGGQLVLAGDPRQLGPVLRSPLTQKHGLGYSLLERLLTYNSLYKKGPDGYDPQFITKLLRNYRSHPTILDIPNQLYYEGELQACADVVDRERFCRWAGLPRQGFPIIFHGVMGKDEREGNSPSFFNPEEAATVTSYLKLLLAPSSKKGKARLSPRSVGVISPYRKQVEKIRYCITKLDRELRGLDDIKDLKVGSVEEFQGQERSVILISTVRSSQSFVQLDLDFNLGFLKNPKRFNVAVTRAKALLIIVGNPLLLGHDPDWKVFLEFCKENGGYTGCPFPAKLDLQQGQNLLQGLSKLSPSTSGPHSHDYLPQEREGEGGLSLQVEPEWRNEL

The other results are listed elsewhere or left out.

Compound in this test: CC[C@@H]1C(=O)N(C)c2cnc(Nc3ccc(C(=O)N[C@H]4CC[C@H](N5CCN(CC6CC6)CC5)CC4)cc3OC)nc2N1C(C)C [volasertib]
The experiment in a line: log2 fold change, soluble protein after heating vs DMSO (PISA); higher = thermal stabilisation; K562 lysate, 10 uM; active = over 0.2 and 3.5 SD of the protein, either way, in both replicates (recomputed). Put shortly: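 The values are log-two fold changes in thermal stability compared with solvent controls and come from duplicates. They were obtained by TMTpro 16plex LC-MS/MS, with channel sums equalised, on the supernatant after 21,000xg for 90 min. That supernatant came from crude K562 extract at 1 mg/mL protein treated with 10 μM compound for 30 min, heated for 3 min across 48°C-58°C, pooled and brought to 0.5% NP-40 at 4°C.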
For the target MGST1 (UniProt P10620), the log2 fold change was inactive: 0.07.

In the case of MRI1 (UniProt Q9BV20), the log2 fold change was inactive: 0.021.

MOB4 (UniProt Q9Y3A3): the log2 fold change was inactive: 0.01.

With MKNK1 (UniProt Q9BUB5), the log2 fold change is inactive: -0.039.

In the case of MIF4GD isoform 3 (UniProt A9UHW6), the log2 fold change was inactive: -0.012.

As to MRPL1 (UniProt Q9BYD6), the log2 fold change is inactive: -0.013.

Turning to MLX (UniProt Q9UH92), the log2 fold change was inactive: 0.

In the case of MPI (UniProt P34949), the log2 fold change was inactive: -0.02.

Consider MRGBP (UniProt Q9NV56), for which the log2 fold change is inactive: 0.021.

Take MMTAG2 (UniProt Q9BU76): the log2 fold change is inactive: -0.011.

On to MPZL1 (UniProt O95297), for which the log2 fold change is inactive: 0.035.

Consider MRPL23 (UniProt Q16540), for which the log2 fold change was inactive: 0.015.

With MPST isoform 2 (UniProt P25325), the log2 fold change is inactive: -0.006.

In the case of MRPL15 (UniProt Q9P015), the log2 fold change is inactive: -0.018.

MICOS10 (UniProt Q5TGZ0): the log2 fold change is inactive: 0.111.

Regarding MIA2 (UniProt Q96PC5), the log2 fold change was inactive: -0.02.

Take MKI67 (UniProt P46013): the log2 fold change is inactive: 0.006.

For the target MKRN1 (UniProt Q9UHC7), the log2 fold change is inactive: 0.036.

Regarding MRPL14 (UniProt Q6P1L8), the log2 fold change is inactive: 0.042.

In the case of MICALL1 (UniProt Q8N3F8), the log2 fold change was inactive: -0.006.

Regarding MICALL2 (UniProt Q8IY33), the log2 fold change was inactive: 0.009.

For MINDY3 (UniProt Q9H8M7), the log2 fold change is inactive: -0.002.

With MPP1 (UniProt Q00013), the log2 fold change was inactive: -0.029.

Take MON2 isoform 5 (UniProt Q7Z3U7): the log2 fold change was inactive: -0.04.

As for MORF4L1 isoform 2 (UniProt Q9UBU8), the log2 fold change is inactive: 0.

Consider MPC2 (UniProt O95563), for which the log2 fold change is inactive: 0.005.

As to MIOS (UniProt Q9NXC5), the log2 fold change is inactive: -0.017.

As for MKRN2 (UniProt Q9H000), the log2 fold change was inactive: -0.021.

Turning to MMUT (UniProt P22033), the log2 fold change is inactive: -0.005.

For MORC2 (UniProt Q9Y6X9), the log2 fold change is inactive: 0.002.

With MMAB (UniProt Q96EY8), the log2 fold change was inactive: 0.002.

Take MRPL19 (UniProt P49406): the log2 fold change was inactive: -0.056.

For the target MRM3 (UniProt Q9HC36), the log2 fold change is inactive: -0.013.

MORF4L2 (UniProt Q15014): the log2 fold change is inactive: 0.001.

Regarding MLXIP (UniProt Q9HAP2), the log2 fold change is inactive: -0.041.

MGST3 (UniProt O14880): the log2 fold change is inactive: 0.076.

With MINPP1 (UniProt Q9UNW1), the log2 fold change is inactive: 0.022.

Regarding MOV10 (UniProt Q9HCE1), the log2 fold change was inactive: -0.003.
